Source: the supplement of paper PMC12823440, “Inhibitors supercharge kinase turnover through native proteolytic circuits” (Nature, 2025)
The list shows a part of the results. Hit calls seldom repeat between salt and free forms of one compound.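 Kinases were expressed as nanoluciferase fusions in K562 cells and luminescence was read every 4 h between 2 and 18 h as percent of control, DMSO set to 100% and a positive control to 0%. A time point counts as decreased when the signal drops significantly (2 sigma). The hit call is the authors' own, does not follow from the count of time points alone, and its rule is not shown.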

Chains of the proteins cited; added tags and fusions are not shown. Lines headed by an entry give the natural chain unless they say otherwise; changes in a name come on top.
UniProt P07949, whole entry, looked up: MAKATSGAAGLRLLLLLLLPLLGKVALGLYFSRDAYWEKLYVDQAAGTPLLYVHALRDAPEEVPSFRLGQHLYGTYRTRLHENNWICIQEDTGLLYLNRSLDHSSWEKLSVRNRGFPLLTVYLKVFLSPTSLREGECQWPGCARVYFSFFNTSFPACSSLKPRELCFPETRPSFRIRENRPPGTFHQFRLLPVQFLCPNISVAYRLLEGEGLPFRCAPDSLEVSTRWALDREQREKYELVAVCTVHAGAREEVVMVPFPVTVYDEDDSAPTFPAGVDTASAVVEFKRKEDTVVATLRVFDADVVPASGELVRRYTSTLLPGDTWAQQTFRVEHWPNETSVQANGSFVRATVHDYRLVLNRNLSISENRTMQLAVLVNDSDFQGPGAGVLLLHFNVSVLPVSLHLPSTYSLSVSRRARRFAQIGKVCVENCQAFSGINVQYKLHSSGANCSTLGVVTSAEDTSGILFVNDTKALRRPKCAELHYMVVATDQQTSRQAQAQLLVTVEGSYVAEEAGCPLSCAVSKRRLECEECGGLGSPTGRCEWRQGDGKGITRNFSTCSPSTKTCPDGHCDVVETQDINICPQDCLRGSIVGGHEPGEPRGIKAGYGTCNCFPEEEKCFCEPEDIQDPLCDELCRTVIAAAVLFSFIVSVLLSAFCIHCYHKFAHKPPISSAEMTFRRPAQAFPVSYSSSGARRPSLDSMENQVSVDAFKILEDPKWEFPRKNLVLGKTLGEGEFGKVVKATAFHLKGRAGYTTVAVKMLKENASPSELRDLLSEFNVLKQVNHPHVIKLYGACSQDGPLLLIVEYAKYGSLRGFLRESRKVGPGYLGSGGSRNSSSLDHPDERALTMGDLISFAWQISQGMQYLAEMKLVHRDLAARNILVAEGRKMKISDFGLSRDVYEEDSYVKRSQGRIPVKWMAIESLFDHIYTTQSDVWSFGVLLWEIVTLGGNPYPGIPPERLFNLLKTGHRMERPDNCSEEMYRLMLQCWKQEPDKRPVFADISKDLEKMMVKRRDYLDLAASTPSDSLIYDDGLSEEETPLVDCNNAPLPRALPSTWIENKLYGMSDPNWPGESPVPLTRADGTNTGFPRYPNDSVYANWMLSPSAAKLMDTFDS
UniProt P07949, whole entry M918T, looked up: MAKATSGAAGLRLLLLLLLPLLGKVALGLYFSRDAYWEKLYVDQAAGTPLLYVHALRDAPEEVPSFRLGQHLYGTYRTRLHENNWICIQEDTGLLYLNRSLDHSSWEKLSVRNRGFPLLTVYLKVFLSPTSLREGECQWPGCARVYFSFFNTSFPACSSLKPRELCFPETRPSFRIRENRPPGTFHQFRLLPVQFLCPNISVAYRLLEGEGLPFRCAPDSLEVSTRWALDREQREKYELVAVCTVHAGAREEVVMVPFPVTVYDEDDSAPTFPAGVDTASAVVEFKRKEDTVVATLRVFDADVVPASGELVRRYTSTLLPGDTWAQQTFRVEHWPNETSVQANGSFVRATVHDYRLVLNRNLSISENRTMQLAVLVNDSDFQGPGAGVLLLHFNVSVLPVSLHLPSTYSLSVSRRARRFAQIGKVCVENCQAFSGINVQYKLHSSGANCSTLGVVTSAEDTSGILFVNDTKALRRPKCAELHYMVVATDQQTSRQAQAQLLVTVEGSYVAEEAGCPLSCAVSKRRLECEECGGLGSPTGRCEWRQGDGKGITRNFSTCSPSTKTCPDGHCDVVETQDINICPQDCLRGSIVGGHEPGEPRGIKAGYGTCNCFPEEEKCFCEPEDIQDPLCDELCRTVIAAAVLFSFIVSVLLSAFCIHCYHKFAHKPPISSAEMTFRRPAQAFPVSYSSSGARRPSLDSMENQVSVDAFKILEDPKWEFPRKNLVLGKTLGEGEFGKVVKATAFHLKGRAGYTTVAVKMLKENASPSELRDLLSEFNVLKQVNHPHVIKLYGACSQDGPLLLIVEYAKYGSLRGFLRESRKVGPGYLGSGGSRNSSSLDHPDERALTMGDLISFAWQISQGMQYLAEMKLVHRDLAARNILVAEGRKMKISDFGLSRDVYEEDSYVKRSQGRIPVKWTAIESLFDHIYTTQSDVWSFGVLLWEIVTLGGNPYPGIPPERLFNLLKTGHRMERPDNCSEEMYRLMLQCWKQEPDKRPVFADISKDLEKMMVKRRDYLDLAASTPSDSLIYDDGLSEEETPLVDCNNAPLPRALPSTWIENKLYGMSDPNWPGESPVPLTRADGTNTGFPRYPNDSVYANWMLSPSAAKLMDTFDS
UniProt Q9BRS2: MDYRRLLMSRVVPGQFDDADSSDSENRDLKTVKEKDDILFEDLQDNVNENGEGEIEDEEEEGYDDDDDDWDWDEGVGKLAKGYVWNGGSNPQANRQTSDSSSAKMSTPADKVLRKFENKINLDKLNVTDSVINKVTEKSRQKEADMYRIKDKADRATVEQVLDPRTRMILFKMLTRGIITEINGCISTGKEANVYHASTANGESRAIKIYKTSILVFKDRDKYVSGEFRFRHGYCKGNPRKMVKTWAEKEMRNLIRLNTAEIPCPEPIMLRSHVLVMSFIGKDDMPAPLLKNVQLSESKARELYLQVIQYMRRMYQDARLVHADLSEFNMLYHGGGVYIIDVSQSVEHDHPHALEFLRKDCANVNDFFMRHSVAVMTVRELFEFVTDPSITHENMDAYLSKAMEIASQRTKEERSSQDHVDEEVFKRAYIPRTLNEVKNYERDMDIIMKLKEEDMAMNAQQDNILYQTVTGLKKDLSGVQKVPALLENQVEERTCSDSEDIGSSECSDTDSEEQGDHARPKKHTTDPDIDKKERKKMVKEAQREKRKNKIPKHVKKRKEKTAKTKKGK
UniProt Q13546: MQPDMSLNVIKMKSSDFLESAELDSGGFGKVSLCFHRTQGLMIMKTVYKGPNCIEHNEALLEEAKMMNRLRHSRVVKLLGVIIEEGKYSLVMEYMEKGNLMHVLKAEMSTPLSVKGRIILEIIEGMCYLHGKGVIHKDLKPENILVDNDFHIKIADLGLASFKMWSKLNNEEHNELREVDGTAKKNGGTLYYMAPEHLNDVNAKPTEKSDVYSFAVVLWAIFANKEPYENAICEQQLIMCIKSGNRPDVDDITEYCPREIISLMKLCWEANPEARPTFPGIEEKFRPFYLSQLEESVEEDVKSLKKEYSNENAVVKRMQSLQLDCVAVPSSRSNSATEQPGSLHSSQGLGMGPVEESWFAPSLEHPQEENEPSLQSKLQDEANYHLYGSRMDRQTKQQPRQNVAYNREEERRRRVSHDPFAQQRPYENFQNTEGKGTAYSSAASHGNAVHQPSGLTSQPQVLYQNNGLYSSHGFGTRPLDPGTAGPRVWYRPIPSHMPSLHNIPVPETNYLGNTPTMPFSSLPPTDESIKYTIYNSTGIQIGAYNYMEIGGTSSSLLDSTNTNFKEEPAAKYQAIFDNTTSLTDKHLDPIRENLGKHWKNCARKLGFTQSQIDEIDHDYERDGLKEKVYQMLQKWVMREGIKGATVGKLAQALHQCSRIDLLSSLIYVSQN
UniProt Q01974, whole entry: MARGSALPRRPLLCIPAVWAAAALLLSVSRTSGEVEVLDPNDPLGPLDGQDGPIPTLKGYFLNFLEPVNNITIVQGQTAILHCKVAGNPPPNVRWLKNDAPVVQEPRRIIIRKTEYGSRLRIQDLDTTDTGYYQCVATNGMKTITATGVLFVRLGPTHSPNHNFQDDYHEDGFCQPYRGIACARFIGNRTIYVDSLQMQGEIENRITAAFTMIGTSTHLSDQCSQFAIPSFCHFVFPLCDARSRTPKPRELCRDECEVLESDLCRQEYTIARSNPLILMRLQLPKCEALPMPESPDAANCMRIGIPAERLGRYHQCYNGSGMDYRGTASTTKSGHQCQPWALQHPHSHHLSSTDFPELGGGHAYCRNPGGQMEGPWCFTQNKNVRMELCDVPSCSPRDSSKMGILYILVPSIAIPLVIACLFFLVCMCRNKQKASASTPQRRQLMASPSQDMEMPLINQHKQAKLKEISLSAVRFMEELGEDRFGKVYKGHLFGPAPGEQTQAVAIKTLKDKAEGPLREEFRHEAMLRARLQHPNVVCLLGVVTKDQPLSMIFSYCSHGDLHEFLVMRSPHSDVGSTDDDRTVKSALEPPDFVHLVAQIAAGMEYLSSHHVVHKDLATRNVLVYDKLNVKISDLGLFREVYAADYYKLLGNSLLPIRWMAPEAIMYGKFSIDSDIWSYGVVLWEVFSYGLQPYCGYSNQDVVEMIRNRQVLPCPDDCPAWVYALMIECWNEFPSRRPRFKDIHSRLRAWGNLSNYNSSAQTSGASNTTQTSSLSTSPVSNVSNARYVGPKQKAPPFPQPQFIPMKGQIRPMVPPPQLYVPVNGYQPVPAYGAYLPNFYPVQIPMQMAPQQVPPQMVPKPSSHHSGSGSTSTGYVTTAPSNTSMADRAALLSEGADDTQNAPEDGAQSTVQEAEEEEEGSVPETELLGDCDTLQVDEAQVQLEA
UniProt Q9NYA1, whole entry: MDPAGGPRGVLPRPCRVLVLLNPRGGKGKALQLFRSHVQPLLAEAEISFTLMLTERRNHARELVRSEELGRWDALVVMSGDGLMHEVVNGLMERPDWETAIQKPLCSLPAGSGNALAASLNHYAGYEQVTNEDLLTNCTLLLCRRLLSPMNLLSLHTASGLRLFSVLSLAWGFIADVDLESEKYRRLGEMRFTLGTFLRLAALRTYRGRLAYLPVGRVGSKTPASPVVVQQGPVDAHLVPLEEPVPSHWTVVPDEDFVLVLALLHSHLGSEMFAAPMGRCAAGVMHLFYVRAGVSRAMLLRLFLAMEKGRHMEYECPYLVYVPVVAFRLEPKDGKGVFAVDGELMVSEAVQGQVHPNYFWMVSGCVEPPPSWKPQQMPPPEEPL
UniProt Q9Y6E0: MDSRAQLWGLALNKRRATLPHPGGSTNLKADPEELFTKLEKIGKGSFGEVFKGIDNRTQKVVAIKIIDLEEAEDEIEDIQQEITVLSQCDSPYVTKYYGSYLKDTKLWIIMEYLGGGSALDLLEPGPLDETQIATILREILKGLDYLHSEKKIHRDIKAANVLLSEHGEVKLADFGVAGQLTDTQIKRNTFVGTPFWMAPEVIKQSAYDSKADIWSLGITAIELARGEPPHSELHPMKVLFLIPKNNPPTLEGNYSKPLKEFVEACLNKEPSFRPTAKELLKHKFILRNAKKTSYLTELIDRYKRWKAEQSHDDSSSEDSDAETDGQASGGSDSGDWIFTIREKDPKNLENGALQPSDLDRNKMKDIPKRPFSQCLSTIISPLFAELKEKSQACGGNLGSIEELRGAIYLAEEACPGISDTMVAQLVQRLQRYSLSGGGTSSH
UniProt P42680: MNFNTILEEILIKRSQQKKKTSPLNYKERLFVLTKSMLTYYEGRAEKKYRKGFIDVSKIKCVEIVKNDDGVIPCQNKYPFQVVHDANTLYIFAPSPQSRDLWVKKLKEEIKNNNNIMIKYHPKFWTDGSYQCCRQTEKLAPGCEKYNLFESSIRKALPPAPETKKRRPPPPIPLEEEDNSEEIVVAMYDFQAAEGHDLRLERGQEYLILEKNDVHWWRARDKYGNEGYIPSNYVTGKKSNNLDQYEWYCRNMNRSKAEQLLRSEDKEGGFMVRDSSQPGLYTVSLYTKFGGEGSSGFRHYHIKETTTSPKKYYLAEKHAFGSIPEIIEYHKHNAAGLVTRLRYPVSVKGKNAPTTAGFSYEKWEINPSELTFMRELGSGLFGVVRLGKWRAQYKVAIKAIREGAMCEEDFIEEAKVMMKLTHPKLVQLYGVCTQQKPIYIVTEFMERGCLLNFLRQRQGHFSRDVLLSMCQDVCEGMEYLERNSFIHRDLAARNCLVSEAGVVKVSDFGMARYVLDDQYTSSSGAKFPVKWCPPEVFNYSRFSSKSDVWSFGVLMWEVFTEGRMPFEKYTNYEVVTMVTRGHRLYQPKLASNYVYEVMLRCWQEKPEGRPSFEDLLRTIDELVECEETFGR
UniProt P43403: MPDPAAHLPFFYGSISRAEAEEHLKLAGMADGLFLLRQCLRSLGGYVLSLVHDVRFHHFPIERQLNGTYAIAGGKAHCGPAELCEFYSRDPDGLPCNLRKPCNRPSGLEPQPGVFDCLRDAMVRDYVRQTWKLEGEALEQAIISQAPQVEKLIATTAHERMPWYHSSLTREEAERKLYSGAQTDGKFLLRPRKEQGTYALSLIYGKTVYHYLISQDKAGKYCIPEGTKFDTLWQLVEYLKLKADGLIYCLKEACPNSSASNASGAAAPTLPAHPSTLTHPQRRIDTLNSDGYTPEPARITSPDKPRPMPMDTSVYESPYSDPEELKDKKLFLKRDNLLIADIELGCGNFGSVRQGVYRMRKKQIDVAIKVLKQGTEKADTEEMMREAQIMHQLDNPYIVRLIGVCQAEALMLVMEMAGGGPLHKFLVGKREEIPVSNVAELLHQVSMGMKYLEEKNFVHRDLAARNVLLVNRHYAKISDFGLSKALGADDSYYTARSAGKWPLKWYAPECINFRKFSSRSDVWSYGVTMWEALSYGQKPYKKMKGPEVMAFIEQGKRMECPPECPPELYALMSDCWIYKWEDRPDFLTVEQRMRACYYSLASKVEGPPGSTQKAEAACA

Columns and labels:
Details in all cases: K562; 2-18 h
[1] = target: RET (UniProt P07949); test: kinase-Nluc reporter destabilization hit call (1 = scored as downregulated) (binary); higher = compound decreases kinase abundance
[2] = target: RET_M918T (clone: RET_mut) (UniProt P07949); test: as above
[3] = target: RIOK1 (UniProt Q9BRS2); test: as above
[4] = target: RIPK1 (UniProt Q13546); test: as above
[5] = target: RIPK2 (UniProt O43353); test: as above
[6] = target: ROR2 (UniProt Q01974); test: as above
[7] = target: RPS6KA1 (UniProt Q15418); test: as above
[8] = target: SPHK1 (UniProt Q9NYA1); test: as above
[9] = target: SRC (UniProt P12931); test: as above
[10] = target: STK24 (UniProt Q9Y6E0); test: as above
[11] = target: STK38 (UniProt Q15208); test: as above
[12] = target: SYK (UniProt P43405); test: as above
[13] = target: TEC (UniProt P42680); test: as above
[14] = target: TYK2 (UniProt P29597); test: as above
[15] = target: ULK3 (UniProt Q6PHR2); test: as above
[16] = target: YES1 (UniProt P07947); test: as above
[17] = target: ZAK (UniProt Q9NYL2); test: as above
[18] = target: ZAP70 (UniProt P43403); test: as above
[19] = target: ABL1 (UniProt P00519); test: number of time points (of 5) at which kinase-Nluc abundance scored as decreased, DMSO-normalised (count); higher = more persistent destabilization
[20] = target: AKT1 (UniProt P31749); test: as above

C=CC(=O)Nc1ccc(CN(C(=O)Nc2c(Cl)c(OC)cc(OC)c2Cl)c2cc(Nc3ccc(N4CCN(C)CC4)cc3)ncn2)cc1 (10 µM)
0: number of time points [19] | number of time points [20]
inactive: kinase-Nluc reporter destabilization hit call [1] 0 | kinase-Nluc reporter destabilization hit call [2] 0 | kinase-Nluc reporter destabilization hit call [3] 0 | kinase-Nluc reporter destabilization hit call [4] 0 | kinase-Nluc reporter destabilization hit call [5] 0 | kinase-Nluc reporter destabilization hit call [6] 0 | kinase-Nluc reporter destabilization hit call [7] 0 | kinase-Nluc reporter destabilization hit call [8] 0 | kinase-Nluc reporter destabilization hit call [9] 0 | kinase-Nluc reporter destabilization hit call [10] 0 | kinase-Nluc reporter destabilization hit call [11] 0 | kinase-Nluc reporter destabilization hit call [12] 0 | kinase-Nluc reporter destabilization hit call [13] 0 | kinase-Nluc reporter destabilization hit call [14] 0 | kinase-Nluc reporter destabilization hit call [15] 0 | kinase-Nluc reporter destabilization hit call [16] 0 | kinase-Nluc reporter destabilization hit call [17] 0 | kinase-Nluc reporter destabilization hit call [18] 0

CC(=O)N1CCN(c2cc(-c3cc(C(F)(F)F)c4c(N)ncnn34)ccc2C#N)C(=O)C1(C)C (10 µM)
0: number of time points [19] | number of time points [20]
inactive: kinase-Nluc reporter destabilization hit call [1] 0 | kinase-Nluc reporter destabilization hit call [2] 0 | kinase-Nluc reporter destabilization hit call [3] 0 | kinase-Nluc reporter destabilization hit call [4] 0 | kinase-Nluc reporter destabilization hit call [5] 0 | kinase-Nluc reporter destabilization hit call [6] 0 | kinase-Nluc reporter destabilization hit call [7] 0 | kinase-Nluc reporter destabilization hit call [8] 0 | kinase-Nluc reporter destabilization hit call [9] 0 | kinase-Nluc reporter destabilization hit call [10] 0 | kinase-Nluc reporter destabilization hit call [11] 0 | kinase-Nluc reporter destabilization hit call [12] 0 | kinase-Nluc reporter destabilization hit call [13] 0 | kinase-Nluc reporter destabilization hit call [14] 0 | kinase-Nluc reporter destabilization hit call [15] 0 | kinase-Nluc reporter destabilization hit call [16] 0 | kinase-Nluc reporter destabilization hit call [17] 0 | kinase-Nluc reporter destabilization hit call [18] 0

NCc1ccc(Nc2ncc(F)c(Nc3ccccc3)n2)cc1 (10 µM)
inactive: kinase-Nluc reporter destabilization hit call [1] 0 | kinase-Nluc reporter destabilization hit call [2] 0 | kinase-Nluc reporter destabilization hit call [3] 0 | kinase-Nluc reporter destabilization hit call [4] 0 | kinase-Nluc reporter destabilization hit call [5] 0 | kinase-Nluc reporter destabilization hit call [6] 0 | kinase-Nluc reporter destabilization hit call [7] 0 | kinase-Nluc reporter destabilization hit call [8] 0 | kinase-Nluc reporter destabilization hit call [9] 0 | kinase-Nluc reporter destabilization hit call [10] 0 | kinase-Nluc reporter destabilization hit call [11] 0 | kinase-Nluc reporter destabilization hit call [12] 0 | kinase-Nluc reporter destabilization hit call [13] 0 | kinase-Nluc reporter destabilization hit call [14] 0 | kinase-Nluc reporter destabilization hit call [15] 0 | kinase-Nluc reporter destabilization hit call [16] 0 | kinase-Nluc reporter destabilization hit call [17] 0 | kinase-Nluc reporter destabilization hit call [18] 0
0: number of time points [19] | number of time points [20]

Cn1cnc(-c2cc3nccc(Oc4ccc(NC(=S)NC(=O)Cc5ccccc5)cc4F)c3s2)c1 [MGCD-265 analog] (10 µM)
4: number of time points [19]
inactive: kinase-Nluc reporter destabilization hit call [1] 0 | kinase-Nluc reporter destabilization hit call [2] 0 | kinase-Nluc reporter destabilization hit call [3] 0 | kinase-Nluc reporter destabilization hit call [4] 0 | kinase-Nluc reporter destabilization hit call [5] 0 | kinase-Nluc reporter destabilization hit call [6] 0 | kinase-Nluc reporter destabilization hit call [7] 0 | kinase-Nluc reporter destabilization hit call [8] 0 | kinase-Nluc reporter destabilization hit call [9] 0 | kinase-Nluc reporter destabilization hit call [10] 0 | kinase-Nluc reporter destabilization hit call [11] 0 | kinase-Nluc reporter destabilization hit call [12] 0 | kinase-Nluc reporter destabilization hit call [13] 0 | kinase-Nluc reporter destabilization hit call [14] 0 | kinase-Nluc reporter destabilization hit call [15] 0 | kinase-Nluc reporter destabilization hit call [16] 0 | kinase-Nluc reporter destabilization hit call [17] 0 | kinase-Nluc reporter destabilization hit call [18] 0
0: number of time points [20]

COc1ccc(C(=C2C(=O)Nc3ccccc32)c2ccc(OC)cc2)cc1 (10 µM)
0: number of time points [19] | number of time points [20]
inactive: kinase-Nluc reporter destabilization hit call [1] 0 | kinase-Nluc reporter destabilization hit call [2] 0 | kinase-Nluc reporter destabilization hit call [3] 0 | kinase-Nluc reporter destabilization hit call [4] 0 | kinase-Nluc reporter destabilization hit call [5] 0 | kinase-Nluc reporter destabilization hit call [6] 0 | kinase-Nluc reporter destabilization hit call [7] 0 | kinase-Nluc reporter destabilization hit call [8] 0 | kinase-Nluc reporter destabilization hit call [9] 0 | kinase-Nluc reporter destabilization hit call [10] 0 | kinase-Nluc reporter destabilization hit call [11] 0 | kinase-Nluc reporter destabilization hit call [12] 0 | kinase-Nluc reporter destabilization hit call [13] 0 | kinase-Nluc reporter destabilization hit call [14] 0 | kinase-Nluc reporter destabilization hit call [15] 0 | kinase-Nluc reporter destabilization hit call [16] 0 | kinase-Nluc reporter destabilization hit call [17] 0 | kinase-Nluc reporter destabilization hit call [18] 0

O=C(Nc1cc(Oc2cc(F)c(NC(=O)C3(C(=O)Nc4ccc(F)cc4)CC3)cc2F)ccn1)C1CC1 [Altiratinib] (10 µM)
inactive: kinase-Nluc reporter destabilization hit call [1] 0 | kinase-Nluc reporter destabilization hit call [2] 0 | kinase-Nluc reporter destabilization hit call [3] 0 | kinase-Nluc reporter destabilization hit call [4] 0 | kinase-Nluc reporter destabilization hit call [5] 0 | kinase-Nluc reporter destabilization hit call [6] 0 | kinase-Nluc reporter destabilization hit call [7] 0 | kinase-Nluc reporter destabilization hit call [8] 0 | kinase-Nluc reporter destabilization hit call [9] 0 | kinase-Nluc reporter destabilization hit call [10] 0 | kinase-Nluc reporter destabilization hit call [11] 0 | kinase-Nluc reporter destabilization hit call [12] 0 | kinase-Nluc reporter destabilization hit call [13] 0 | kinase-Nluc reporter destabilization hit call [14] 0 | kinase-Nluc reporter destabilization hit call [15] 0 | kinase-Nluc reporter destabilization hit call [16] 0 | kinase-Nluc reporter destabilization hit call [17] 0 | kinase-Nluc reporter destabilization hit call [18] 0
0: number of time points [19] | number of time points [20]

C=C(C)C(=O)Nc1cccc(-c2ncnc3[nH]cc(C(=O)OCC)c23)c1 (10 µM)
inactive: kinase-Nluc reporter destabilization hit call [1] 0 | kinase-Nluc reporter destabilization hit call [2] 0 | kinase-Nluc reporter destabilization hit call [3] 0 | kinase-Nluc reporter destabilization hit call [4] 0 | kinase-Nluc reporter destabilization hit call [5] 0 | kinase-Nluc reporter destabilization hit call [6] 0 | kinase-Nluc reporter destabilization hit call [7] 0 | kinase-Nluc reporter destabilization hit call [8] 0 | kinase-Nluc reporter destabilization hit call [9] 0 | kinase-Nluc reporter destabilization hit call [10] 0 | kinase-Nluc reporter destabilization hit call [11] 0 | kinase-Nluc reporter destabilization hit call [12] 0 | kinase-Nluc reporter destabilization hit call [13] 0 | kinase-Nluc reporter destabilization hit call [14] 0 | kinase-Nluc reporter destabilization hit call [15] 0 | kinase-Nluc reporter destabilization hit call [16] 0 | kinase-Nluc reporter destabilization hit call [17] 0 | kinase-Nluc reporter destabilization hit call [18] 0
0: number of time points [19] | number of time points [20]

CCn1c(C(=O)N(C2CC2)C2CC2)cc2c3c(ncn3C)c(Nc3cc(C)n(C)n3)nc21 (10 µM)
0: number of time points [19] | number of time points [20]
inactive: kinase-Nluc reporter destabilization hit call [1] 0 | kinase-Nluc reporter destabilization hit call [2] 0 | kinase-Nluc reporter destabilization hit call [3] 0 | kinase-Nluc reporter destabilization hit call [4] 0 | kinase-Nluc reporter destabilization hit call [5] 0 | kinase-Nluc reporter destabilization hit call [6] 0 | kinase-Nluc reporter destabilization hit call [7] 0 | kinase-Nluc reporter destabilization hit call [8] 0 | kinase-Nluc reporter destabilization hit call [9] 0 | kinase-Nluc reporter destabilization hit call [10] 0 | kinase-Nluc reporter destabilization hit call [11] 0 | kinase-Nluc reporter destabilization hit call [12] 0 | kinase-Nluc reporter destabilization hit call [13] 0 | kinase-Nluc reporter destabilization hit call [14] 0 | kinase-Nluc reporter destabilization hit call [15] 0 | kinase-Nluc reporter destabilization hit call [16] 0 | kinase-Nluc reporter destabilization hit call [17] 0 | kinase-Nluc reporter destabilization hit call [18] 0

COc1ncc(-c2nc(N3CCOCC3)nc3c(CN4CCC(C(C)(C)O)CC4)cc(F)cc23)cc1NS(C)(=O)=O [Linperlisib] (10 µM)
inactive: kinase-Nluc reporter destabilization hit call [1] 0 | kinase-Nluc reporter destabilization hit call [2] 0 | kinase-Nluc reporter destabilization hit call [3] 0 | kinase-Nluc reporter destabilization hit call [4] 0 | kinase-Nluc reporter destabilization hit call [5] 0 | kinase-Nluc reporter destabilization hit call [6] 0 | kinase-Nluc reporter destabilization hit call [7] 0 | kinase-Nluc reporter destabilization hit call [8] 0 | kinase-Nluc reporter destabilization hit call [9] 0 | kinase-Nluc reporter destabilization hit call [10] 0 | kinase-Nluc reporter destabilization hit call [11] 0 | kinase-Nluc reporter destabilization hit call [12] 0 | kinase-Nluc reporter destabilization hit call [13] 0 | kinase-Nluc reporter destabilization hit call [14] 0 | kinase-Nluc reporter destabilization hit call [15] 0 | kinase-Nluc reporter destabilization hit call [16] 0 | kinase-Nluc reporter destabilization hit call [17] 0 | kinase-Nluc reporter destabilization hit call [18] 0
0: number of time points [19] | number of time points [20]

COCCO[C@@H]1[C@H](O)[C@@H](CO)O[C@H]1n1cnc2c(=O)[nH]c(N)nc21 [2′-O-(2-Methoxyethyl)guanosine] (10 µM)
inactive: kinase-Nluc reporter destabilization hit call [1] 0 | kinase-Nluc reporter destabilization hit call [2] 0 | kinase-Nluc reporter destabilization hit call [3] 0 | kinase-Nluc reporter destabilization hit call [4] 0 | kinase-Nluc reporter destabilization hit call [5] 0 | kinase-Nluc reporter destabilization hit call [6] 0 | kinase-Nluc reporter destabilization hit call [7] 0 | kinase-Nluc reporter destabilization hit call [8] 0 | kinase-Nluc reporter destabilization hit call [9] 0 | kinase-Nluc reporter destabilization hit call [10] 0 | kinase-Nluc reporter destabilization hit call [11] 0 | kinase-Nluc reporter destabilization hit call [12] 0 | kinase-Nluc reporter destabilization hit call [13] 0 | kinase-Nluc reporter destabilization hit call [14] 0 | kinase-Nluc reporter destabilization hit call [15] 0 | kinase-Nluc reporter destabilization hit call [16] 0 | kinase-Nluc reporter destabilization hit call [17] 0 | kinase-Nluc reporter destabilization hit call [18] 0
0: number of time points [19] | number of time points [20]
